Reference: PMC6127144
These are yes or no findings as the source states them, for the method shown. Binding seen in cells or lysates may run through a third protein.

Protein sequences, listed by entry. Tags and fused reporters are not part of them. Lines headed by an entry give the natural chain unless they say otherwise; changes in a name come on top. Chains listed by the source or under a name are the forms on record and can include a tag or linker.
human plasma membrane Ca2+-ATPase 1, full-length human PMCA1d (P20020, form named): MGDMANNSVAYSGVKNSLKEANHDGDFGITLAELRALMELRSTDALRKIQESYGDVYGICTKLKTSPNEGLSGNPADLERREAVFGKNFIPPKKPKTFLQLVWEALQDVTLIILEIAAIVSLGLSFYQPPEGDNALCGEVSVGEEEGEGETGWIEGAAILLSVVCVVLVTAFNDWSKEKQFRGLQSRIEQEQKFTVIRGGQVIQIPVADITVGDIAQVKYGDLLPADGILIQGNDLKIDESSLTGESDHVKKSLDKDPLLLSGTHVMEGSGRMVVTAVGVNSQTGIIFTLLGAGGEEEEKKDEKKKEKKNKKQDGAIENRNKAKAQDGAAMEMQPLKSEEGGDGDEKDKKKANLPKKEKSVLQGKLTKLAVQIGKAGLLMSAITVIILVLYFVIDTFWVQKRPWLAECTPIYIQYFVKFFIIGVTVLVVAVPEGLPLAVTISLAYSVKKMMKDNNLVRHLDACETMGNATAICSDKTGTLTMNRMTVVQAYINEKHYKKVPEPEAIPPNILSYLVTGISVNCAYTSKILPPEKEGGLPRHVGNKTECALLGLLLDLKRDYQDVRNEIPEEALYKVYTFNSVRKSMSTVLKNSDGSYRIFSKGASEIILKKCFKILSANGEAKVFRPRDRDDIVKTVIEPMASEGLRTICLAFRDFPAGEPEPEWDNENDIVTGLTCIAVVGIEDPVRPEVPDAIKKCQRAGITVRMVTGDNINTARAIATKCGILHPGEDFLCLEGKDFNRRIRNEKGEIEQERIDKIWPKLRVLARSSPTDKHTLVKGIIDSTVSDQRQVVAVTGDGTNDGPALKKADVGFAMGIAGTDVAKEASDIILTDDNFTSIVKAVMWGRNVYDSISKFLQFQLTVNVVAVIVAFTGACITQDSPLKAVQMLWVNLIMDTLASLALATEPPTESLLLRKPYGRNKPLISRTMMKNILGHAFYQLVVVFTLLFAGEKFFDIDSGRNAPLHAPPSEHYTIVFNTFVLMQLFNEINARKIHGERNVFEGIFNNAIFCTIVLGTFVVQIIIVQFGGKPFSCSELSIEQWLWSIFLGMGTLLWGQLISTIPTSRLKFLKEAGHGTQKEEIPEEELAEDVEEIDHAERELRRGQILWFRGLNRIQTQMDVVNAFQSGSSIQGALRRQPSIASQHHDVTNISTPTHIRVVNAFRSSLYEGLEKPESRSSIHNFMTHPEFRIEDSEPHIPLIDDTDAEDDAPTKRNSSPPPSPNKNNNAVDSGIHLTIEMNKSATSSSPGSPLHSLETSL

Target: human plasma membrane Ca2+-ATPase 1, full-length human PMCA1d (human) (UniProt P20020)
Assay: condition: only washing with DTAC-containing buffer; co-IP; detergent screening: purification of hPMCA1-FLAG-His8 on anti-FLAG M2 gel with DDM replaced by DTAC in washing and elution steps; subunit BASI detected by anti-BASI antibodies

binding: no binding
Substance: basigin (from UniProt P35613-2)
